Test results as given in the supplement of paper PMC12067093, “Discovery and optimisation of a covalent ligand for TRIM25 and its application to targeted protein ubiquitination” (Chemical Science, 2025).
The list shows a part of the results.

Chains of the proteins cited; added tags and fusions are not shown. Lines headed by an entry give the natural chain unless they say otherwise; changes in a name come on top.
UniProt Q12789: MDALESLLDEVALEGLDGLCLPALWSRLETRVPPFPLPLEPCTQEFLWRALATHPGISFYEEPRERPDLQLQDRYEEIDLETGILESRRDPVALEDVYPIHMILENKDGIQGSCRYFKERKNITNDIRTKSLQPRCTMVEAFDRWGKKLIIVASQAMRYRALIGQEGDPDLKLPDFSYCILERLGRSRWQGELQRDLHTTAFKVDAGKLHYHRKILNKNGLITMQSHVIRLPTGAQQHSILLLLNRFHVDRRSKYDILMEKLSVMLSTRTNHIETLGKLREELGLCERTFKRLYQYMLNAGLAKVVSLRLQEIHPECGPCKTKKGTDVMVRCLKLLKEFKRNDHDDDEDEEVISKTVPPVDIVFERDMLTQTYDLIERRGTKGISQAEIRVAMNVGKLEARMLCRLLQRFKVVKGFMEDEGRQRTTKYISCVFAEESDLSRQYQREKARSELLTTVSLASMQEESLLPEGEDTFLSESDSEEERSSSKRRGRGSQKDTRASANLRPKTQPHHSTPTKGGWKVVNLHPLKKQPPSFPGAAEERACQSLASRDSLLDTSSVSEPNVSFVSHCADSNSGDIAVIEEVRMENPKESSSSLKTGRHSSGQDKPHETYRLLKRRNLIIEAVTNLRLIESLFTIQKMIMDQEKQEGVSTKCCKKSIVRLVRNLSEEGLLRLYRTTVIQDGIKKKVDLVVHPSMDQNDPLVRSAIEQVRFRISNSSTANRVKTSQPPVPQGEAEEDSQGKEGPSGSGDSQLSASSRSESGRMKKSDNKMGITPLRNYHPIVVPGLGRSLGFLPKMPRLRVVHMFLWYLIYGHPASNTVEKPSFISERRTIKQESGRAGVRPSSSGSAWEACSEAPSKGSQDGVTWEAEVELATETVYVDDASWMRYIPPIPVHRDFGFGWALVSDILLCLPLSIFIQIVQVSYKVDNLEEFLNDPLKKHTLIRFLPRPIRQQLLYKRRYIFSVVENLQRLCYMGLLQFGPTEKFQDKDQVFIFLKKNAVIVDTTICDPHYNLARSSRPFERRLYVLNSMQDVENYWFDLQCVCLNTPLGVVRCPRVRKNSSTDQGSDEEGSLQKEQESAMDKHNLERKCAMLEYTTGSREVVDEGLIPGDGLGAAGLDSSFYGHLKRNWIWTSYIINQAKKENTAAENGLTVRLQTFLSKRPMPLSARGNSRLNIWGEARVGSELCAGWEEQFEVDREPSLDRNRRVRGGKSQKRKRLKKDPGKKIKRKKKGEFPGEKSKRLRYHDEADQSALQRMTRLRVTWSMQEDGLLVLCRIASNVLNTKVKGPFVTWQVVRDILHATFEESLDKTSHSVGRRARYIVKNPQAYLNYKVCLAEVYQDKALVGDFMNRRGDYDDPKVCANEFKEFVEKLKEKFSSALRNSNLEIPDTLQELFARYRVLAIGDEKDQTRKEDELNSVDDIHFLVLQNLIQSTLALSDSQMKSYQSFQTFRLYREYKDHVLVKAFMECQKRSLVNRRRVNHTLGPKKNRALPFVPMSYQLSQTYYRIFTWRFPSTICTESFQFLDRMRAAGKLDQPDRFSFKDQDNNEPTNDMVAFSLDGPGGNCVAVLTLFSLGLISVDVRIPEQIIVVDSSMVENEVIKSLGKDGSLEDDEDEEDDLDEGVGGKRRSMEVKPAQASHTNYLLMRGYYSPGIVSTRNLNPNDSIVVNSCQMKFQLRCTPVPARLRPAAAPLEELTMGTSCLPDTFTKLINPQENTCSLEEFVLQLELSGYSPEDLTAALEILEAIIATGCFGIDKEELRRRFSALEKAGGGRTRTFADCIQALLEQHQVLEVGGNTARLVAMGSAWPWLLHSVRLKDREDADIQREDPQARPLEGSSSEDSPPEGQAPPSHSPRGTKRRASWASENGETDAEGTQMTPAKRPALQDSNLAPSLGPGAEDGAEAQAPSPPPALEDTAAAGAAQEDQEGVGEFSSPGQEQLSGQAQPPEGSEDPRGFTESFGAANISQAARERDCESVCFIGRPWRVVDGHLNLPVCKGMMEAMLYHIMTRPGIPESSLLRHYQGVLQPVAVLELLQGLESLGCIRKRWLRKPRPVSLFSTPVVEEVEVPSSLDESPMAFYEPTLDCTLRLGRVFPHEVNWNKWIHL
UniProt O14929: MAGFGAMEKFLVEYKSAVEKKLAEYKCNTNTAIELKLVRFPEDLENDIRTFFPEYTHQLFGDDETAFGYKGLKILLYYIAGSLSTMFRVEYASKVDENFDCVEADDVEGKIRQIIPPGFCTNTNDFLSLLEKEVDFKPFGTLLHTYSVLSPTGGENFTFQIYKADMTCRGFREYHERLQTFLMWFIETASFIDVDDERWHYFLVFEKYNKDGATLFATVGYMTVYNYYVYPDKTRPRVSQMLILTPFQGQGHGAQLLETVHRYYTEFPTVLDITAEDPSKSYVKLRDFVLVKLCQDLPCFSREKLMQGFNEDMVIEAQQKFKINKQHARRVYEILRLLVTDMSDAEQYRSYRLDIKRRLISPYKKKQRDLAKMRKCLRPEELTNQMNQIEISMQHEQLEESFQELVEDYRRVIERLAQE
UniProt O60443: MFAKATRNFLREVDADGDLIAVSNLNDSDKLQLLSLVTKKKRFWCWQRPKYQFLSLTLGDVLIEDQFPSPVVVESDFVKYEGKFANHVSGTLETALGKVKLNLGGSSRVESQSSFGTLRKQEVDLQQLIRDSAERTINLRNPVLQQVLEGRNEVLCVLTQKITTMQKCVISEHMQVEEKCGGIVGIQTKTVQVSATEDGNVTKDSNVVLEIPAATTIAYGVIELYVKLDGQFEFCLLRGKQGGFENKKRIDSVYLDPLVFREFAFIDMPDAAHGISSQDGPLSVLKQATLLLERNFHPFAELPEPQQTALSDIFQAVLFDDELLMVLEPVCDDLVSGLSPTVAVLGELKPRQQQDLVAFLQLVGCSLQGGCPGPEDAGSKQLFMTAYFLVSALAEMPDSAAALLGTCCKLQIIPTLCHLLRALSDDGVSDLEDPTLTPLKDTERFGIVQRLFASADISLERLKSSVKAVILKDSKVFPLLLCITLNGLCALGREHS
UniProt P07203, whole entry, looked up: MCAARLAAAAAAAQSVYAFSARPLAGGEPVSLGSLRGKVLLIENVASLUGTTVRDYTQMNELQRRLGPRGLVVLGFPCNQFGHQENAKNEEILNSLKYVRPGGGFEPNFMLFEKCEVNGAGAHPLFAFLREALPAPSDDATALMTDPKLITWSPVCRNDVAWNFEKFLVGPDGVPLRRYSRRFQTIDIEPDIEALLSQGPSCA
UniProt P28799: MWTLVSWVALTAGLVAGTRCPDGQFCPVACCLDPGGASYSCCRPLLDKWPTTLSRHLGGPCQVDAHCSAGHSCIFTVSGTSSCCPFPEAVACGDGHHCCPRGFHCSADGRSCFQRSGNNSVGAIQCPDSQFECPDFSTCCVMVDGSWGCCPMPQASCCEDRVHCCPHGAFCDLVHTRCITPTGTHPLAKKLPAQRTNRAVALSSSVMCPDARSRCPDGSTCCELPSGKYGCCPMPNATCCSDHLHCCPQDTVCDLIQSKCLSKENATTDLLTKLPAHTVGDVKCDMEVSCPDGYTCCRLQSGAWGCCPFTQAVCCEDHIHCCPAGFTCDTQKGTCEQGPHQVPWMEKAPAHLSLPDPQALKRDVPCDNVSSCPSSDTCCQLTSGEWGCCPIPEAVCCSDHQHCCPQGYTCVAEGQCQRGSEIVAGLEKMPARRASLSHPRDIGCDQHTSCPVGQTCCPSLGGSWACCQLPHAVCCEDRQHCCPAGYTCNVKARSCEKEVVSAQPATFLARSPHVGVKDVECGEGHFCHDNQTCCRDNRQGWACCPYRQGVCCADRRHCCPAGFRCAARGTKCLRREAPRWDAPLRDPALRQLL
UniProt Q00403, whole entry, looked up: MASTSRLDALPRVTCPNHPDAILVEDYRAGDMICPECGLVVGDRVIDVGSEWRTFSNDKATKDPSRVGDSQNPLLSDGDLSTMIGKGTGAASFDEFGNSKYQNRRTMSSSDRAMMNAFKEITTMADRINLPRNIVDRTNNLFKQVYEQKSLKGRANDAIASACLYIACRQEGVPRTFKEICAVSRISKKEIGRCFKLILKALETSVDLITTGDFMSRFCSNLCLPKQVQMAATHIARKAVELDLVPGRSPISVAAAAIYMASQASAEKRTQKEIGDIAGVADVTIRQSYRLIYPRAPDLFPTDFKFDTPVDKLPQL
UniProt P48637: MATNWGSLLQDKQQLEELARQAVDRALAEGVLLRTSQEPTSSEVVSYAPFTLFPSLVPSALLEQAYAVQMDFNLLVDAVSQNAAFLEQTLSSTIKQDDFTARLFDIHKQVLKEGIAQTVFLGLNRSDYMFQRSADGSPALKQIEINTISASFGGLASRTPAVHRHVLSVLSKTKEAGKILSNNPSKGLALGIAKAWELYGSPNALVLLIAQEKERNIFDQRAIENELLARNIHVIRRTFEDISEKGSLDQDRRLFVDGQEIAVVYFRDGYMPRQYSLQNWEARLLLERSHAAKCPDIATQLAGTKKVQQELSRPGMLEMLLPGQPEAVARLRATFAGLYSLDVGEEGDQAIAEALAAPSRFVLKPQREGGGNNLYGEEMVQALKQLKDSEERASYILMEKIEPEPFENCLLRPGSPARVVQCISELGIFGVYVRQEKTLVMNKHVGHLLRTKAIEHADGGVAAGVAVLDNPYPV
UniProt P40939: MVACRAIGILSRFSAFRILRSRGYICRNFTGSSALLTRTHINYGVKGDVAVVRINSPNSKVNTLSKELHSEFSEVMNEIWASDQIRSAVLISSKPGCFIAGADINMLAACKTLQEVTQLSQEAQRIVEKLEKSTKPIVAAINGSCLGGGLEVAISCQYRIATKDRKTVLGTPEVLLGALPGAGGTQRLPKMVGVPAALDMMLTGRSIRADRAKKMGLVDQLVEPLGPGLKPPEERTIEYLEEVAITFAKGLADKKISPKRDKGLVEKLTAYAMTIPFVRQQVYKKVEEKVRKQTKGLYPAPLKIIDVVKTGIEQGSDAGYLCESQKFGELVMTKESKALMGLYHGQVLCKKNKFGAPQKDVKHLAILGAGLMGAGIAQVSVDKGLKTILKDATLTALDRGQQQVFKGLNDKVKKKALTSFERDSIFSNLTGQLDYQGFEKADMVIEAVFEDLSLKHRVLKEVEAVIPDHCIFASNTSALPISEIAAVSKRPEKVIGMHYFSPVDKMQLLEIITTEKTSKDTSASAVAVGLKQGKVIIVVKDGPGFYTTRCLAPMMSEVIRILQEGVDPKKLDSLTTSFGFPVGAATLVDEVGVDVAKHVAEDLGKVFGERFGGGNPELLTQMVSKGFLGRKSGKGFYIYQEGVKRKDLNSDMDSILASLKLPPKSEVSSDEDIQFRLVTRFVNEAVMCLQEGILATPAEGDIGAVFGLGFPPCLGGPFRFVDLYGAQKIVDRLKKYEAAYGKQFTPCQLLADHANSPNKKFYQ
UniProt Q6PII5: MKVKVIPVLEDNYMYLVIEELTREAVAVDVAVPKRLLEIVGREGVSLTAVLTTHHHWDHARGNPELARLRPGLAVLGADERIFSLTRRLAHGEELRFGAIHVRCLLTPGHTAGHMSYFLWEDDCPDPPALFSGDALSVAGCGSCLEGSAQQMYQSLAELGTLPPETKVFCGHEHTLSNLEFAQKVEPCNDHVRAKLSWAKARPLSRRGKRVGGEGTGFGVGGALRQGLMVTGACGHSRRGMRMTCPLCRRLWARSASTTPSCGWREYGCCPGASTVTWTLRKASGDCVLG
UniProt P13807: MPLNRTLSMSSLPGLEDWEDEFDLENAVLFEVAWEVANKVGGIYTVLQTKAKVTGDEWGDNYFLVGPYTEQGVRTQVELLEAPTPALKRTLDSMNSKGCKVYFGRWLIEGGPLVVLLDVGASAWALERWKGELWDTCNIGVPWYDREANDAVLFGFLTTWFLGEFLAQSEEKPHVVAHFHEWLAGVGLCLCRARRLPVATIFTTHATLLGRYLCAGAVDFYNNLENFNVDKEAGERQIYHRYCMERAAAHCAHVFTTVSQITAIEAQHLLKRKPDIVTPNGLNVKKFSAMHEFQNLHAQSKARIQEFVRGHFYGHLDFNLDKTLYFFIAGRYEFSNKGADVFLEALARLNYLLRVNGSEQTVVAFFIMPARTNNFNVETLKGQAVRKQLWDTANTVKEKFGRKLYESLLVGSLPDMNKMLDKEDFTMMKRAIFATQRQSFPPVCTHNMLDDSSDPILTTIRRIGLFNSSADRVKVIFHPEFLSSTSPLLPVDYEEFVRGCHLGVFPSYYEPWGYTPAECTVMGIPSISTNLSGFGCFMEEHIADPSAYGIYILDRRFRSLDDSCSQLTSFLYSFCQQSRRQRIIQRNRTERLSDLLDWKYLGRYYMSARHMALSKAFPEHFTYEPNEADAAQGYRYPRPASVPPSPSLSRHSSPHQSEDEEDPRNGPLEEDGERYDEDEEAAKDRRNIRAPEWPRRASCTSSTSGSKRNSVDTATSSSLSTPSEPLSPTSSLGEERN
UniProt P36969, whole entry, looked up: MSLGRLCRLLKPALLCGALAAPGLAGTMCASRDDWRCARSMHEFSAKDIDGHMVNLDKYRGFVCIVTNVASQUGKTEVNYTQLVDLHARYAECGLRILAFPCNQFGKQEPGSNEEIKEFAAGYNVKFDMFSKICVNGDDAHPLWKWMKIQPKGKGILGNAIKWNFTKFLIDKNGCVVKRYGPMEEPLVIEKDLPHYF

Compound: CC1Cc2ccccc2N1C(=O)C1CCCN(C1)C(=O)CCl (mixture of isomers) [TRIM25 ligand 11 (diastereomer mixture)]
Assay: probe-labelled cysteine peptide fold change vs DMSO (competition) (log2 fold change); higher = less target engagement (more negative = stronger competition)
Details: THP-1, incubation time: 4 h
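Also: competitive chemoproteomic profiling in live THP-1 cells with an iodoacetamide desthiobiotin (IA-DTB) probe, comparing probe-labelled peptide intensities in compound-treated cells against DMSO-treated controls.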

Target	probe-labelled cysteine peptide fold change (10 µM)	probe-labelled cysteine peptide fold change (50 µM)
HARS_P12081_224_ILDGMFAICGVSDSK (UniProt P12081)	0.00218	-0.0711
GTF3C1_Q12789_1091_CAMLEYTTGSR (UniProt Q12789)	0.162	0.0373
HAT1_O14929_101_VDENFDCVEADDVEGK (UniProt O14929)	0.145	0.106
GSDME_O60443_180_CGGIVGIQTK (UniProt O60443)	-0.066	-0.166
GZF1_Q9H116_282_NEGCQAGAELEELSK (UniProt Q9H116)	-0.0126	-0.196
GSTP1_P09211_102_DQQEAALVDMVNDGVEDLRCK (UniProt P09211)	-0.268	-0.324
GTF3C4_Q9UKN8_129_TEVAECK (UniProt Q9UKN8)	-0.0676	-0.0269
GPX1_P07203_156_LITWSPVCR (UniProt P07203)	-0.0459	0.00151
HAT1_O14929_168_ADMTCR (UniProt O14929)	0.0223	0.0285
GRN_P28799_164+165+171_VHCCPHGAFCDLVHTR (UniProt P28799)	0.16	-0.0331
GTSE1_Q9NYZ3_539_AVGSPLCVPAR (UniProt Q9NYZ3)	0.0439	0.23
GSTM3_P21266_39_RYTCGEAPDYDR (UniProt P21266)	0.0166	0.0201
GTF2B_Q00403_15_VTCPNHPDAILVEDYR (UniProt Q00403)	-0.116	-0.0934
GTF3C2_Q8WUA4_291_QKPHCR (UniProt Q8WUA4)	-0.189	-0.376
GTF3C1_Q12789_1977_ERDCESVCFIGRPWR (UniProt Q12789)	-0.0153	-0.00454
GSS_P48637_409_IEPEPFENCLLRPGSPAR (UniProt P48637)	0.0168	-0.0726
GRN_P28799_165_VHCCPHGAFCDLVHTR (UniProt P28799)	0.103	0.382
GSR_P00390_107_LGGTCVNVGCVPK (UniProt P00390)	-9.54e-05	0.0311
HADHA_P40939_747_QFTPCQLLADHANSPNK (UniProt P40939)	0.12	-0.00386
HADHA_P40939_747_QFTPCQLLADHANSPNKK (UniProt P40939)	-0.064	-0.094

Target	probe-labelled cysteine peptide fold change (10 µM)	probe-labelled cysteine peptide fold change (50 µM)
GTPBP10_A4D1E9_167_SSLLSCVSHAK (UniProt A4D1E9)	0.0653	-0.032
GPS1_Q13098_175_GHDDLGDHYLDCGDLSNALK (UniProt Q13098)	-0.0088	-0.125
GPX1_P07203_202_RFQTIDIEPDIEALLSQGPSCA (UniProt P07203)	-0.0744	-0.0327
GSDME_O60443_156_NEVLCVLTQK (UniProt O60443)	0.0618	0.202
GTF2E1_P29083_157_CTFCHTEVEEDESAMPK (UniProt P29083)	0.016	0.142
HADHB_P55084_458_EGGQYGLVAACAAGGQGHAMIVEAYPK (UniProt P55084)	-0.107	-0.0403
GTF2A2_P52657_98_IVACDGK (UniProt P52657)	-0.116	-0.151
HAGHL_Q6PII5-2_248_AVPADVLEALCK (UniProt Q6PII5)	-0.171	-0.388
GRAMD1A_Q96CP6_456_RGPQAGGCVVDSEVLTQGIPYQDYFYTAHR (UniProt Q96CP6)	0.107	-0.123
HARS2_P49590_84_ILDLVISCFK (UniProt P49590)	-0.36	-0.281
GYS1_P13807_575_SLDDSCSQLTSFLYSFCQQSR (UniProt P13807)	-0.156	0.226
HADHA_P40939_97_PGCFIAGADINMLAACK (UniProt P40939)	-0.134	0.16
GSPT1_P15170_327_LESGSICK (UniProt P15170)	0.118	0.0281
GYS1_P13807_699_ASCTSSTSGSK (UniProt P13807)	-0.136	-0.138
GTF2B_Q00403_34+37_AGDMICPECGLVVGDR (UniProt Q00403)	0.187	0.0217
H2AFY_O75367_286_FVIHCNSPVWGADKCEELLEK (UniProt O75367)	-0.152	-0.0526
GSS_P48637_294_CPDIATQLAGTK (UniProt P48637)	-0.0406	-0.0273
GPX4_P36969_134_ICVNGDDAHPLWK (UniProt P36969)	0.156	0.234
HACE1_Q8IYU2_172_TELLHDLVQHVSDVDVEDAMGQTALHVACQNGHK (UniProt Q8IYU2)	0.071	-0.027

Quoted at random: two entries already listed
Target	probe-labelled cysteine peptide fold change (10 µM)	probe-labelled cysteine peptide fold change (50 µM)
GSS_P48637_294_CPDIATQLAGTK (UniProt P48637)	-0.0406	-0.0273
GYS1_P13807_575_SLDDSCSQLTSFLYSFCQQSR (UniProt P13807)	-0.156	0.226
